Results reported in paper PMC7699638.
No constants are given. Whether binding was seen depends on the method and setting. Some entries that bind do so weakly or less than the wild type.

Amino acid sequences for entries named in this document (tags omitted). A change or cut given only in a name is not applied to a line headed by its entry. Chains listed by the source or under a name are the forms on record and can include a tag or linker.
UniProt O75116: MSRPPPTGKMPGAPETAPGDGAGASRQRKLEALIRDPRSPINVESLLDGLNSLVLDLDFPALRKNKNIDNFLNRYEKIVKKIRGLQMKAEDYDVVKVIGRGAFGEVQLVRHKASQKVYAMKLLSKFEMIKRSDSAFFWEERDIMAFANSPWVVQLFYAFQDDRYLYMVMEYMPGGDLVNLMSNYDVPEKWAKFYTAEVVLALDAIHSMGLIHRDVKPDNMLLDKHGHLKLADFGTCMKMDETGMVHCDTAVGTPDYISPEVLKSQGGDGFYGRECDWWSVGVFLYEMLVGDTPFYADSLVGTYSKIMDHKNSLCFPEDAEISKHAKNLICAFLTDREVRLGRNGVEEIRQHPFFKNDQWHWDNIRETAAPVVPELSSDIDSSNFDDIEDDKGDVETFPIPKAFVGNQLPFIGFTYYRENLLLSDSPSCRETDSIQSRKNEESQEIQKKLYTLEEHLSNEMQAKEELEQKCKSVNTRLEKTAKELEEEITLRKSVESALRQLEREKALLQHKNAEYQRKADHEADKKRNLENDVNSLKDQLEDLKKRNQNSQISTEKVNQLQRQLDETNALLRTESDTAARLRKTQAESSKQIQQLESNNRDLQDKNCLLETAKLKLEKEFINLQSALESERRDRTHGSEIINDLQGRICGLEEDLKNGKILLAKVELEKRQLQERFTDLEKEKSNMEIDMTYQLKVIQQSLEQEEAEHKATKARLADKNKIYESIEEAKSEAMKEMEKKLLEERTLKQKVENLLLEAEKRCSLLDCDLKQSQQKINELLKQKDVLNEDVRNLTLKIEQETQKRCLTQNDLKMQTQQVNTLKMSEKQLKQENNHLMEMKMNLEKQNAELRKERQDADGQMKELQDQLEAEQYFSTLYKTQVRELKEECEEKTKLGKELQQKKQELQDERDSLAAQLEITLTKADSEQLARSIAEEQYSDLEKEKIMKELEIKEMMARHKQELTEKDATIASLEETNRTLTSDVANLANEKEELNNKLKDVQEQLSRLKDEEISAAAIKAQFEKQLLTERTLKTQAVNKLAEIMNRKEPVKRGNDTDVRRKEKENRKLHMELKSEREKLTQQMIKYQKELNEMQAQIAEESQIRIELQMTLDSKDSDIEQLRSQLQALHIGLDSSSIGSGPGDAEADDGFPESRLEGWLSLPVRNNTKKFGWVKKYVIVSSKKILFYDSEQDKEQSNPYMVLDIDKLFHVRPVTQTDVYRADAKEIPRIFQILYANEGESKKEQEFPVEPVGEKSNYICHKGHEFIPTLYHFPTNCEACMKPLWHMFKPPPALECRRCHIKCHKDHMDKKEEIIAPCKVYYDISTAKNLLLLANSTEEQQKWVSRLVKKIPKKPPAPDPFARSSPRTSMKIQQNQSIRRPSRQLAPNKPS
RhoA (1-181), His-tagged (P61586, form named): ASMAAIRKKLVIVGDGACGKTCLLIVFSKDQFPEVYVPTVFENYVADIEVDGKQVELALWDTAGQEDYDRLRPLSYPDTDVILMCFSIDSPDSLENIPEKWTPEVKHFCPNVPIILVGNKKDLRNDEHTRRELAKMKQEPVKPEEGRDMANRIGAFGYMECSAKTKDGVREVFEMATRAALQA

Biological target: full-length ROCK2 (Rho-associated protein kinase 2), MBP tag removed (human) (UniProt O75116)
Experiment: SEC; Superose 12; 20 mM HEPES pH 7.4, 150 mM NaCl, 3 mM MgCl2; 5 µM ROCK2, 5 µM RhoA and 5 µM BODIPY-GTP in combinations; absorbance at 280 and 488 nm; both purified

“RhoA (1-181), His-tagged (from UniProt P61586 1-181) (domain or fragment)” was tested, and the binding was “binds weakly”.
